# Where “and” joins values, the source holds several entries; their conditions need not be identical. Equal values may be shown once. This is one part of the list. For some assays here: Construct or isoform of the protein are uncertain.
# Experiments:
# Assay in all cases: protein microarray (ProtoArray v5.0), streptavidin-Alexa Fluor 647
# Settings in all cases: 3'-biotin; 20 mM Tris (pH 7.5), 5 mM MgCl2, 100 mM KCl, 0.1% Tween-20, A/T-rich and random oligonucleotide blockers; temperature not stated; high values mean tight binding
# IGLV2-14 (human) = system: IGLV2-14 (human)
# IGSF1 (human) = system: IGSF1 (human)
# IHPK2 (human) = system: IHPK2 (human)
# IKIP (human) = system: IKIP (human)
# IL11RA (human) = system: IL11RA (human)
# IL12A (human) = system: IL12A (human)
# IL17A (human) = system: IL17A (human)
# IL18BP (human) = system: IL18BP (human)
# IL1B (human) = system: IL1B (human)
# IL1F7 (human) = system: IL1F7 (human)
# IL1F8 (human) = system: IL1F8 (human)
# IL1RN (human) = system: IL1RN (human)
# IL2 (human) = system: IL2 (human)
# IL20RB (human) = system: IL20RB (human)
# IL22 (human) = system: IL22 (human)
# IL27 (human) = system: IL27 (human)
# IL3 (human) = system: IL3 (human)
# IL32 (human) = system: IL32 (human)
# IL4 = biological target: T1, IL4 (UniProt P05112)
# T1 sequence: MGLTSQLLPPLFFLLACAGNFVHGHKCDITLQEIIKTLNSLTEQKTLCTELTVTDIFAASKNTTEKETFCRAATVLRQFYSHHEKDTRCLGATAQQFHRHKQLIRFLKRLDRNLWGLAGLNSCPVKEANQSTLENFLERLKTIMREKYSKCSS
# IL5 (human) = system: IL5 (human)
sequence,measurement,setting,value
GGGAGGCTGAGGCAGG [G4-1 biotinylated (PQS2)],binding signal,IGLV2-14 (human),-0.333 z-score
same,binding signal,IGSF1 (human),-0.315 z-score
same,binding signal,IHPK2 (human),-0.317 z-score
same,binding signal,IKIP (human),-0.279 z-score
same,binding signal,IL11RA (human),-0.268 z-score
same,binding signal,IL12A (human),-0.341 z-score
same,binding signal,IL17A (human),-0.328 z-score
same,binding signal,IL18BP (human),-0.312 z-score
same,binding signal,IL1B (human),-0.372 z-score
same,binding signal,IL1F7 (human),-0.317 z-score
same,binding signal,IL1F8 (human),-0.359 z-score
same,binding signal,IL1RN (human),-0.305 z-score
same,binding signal,IL2 (human),-0.317 z-score
same,binding signal,IL20RB (human),-0.301 z-score
same,binding signal,IL22 (human),-0.354 z-score
same,binding signal,IL27 (human),-0.313 z-score
same,binding signal,IL3 (human),-0.283 z-score
same,binding signal,IL32 (human),-0.323 z-score and -0.342 z-score
same,binding signal,IL4,-0.322 z-score
same,binding signal,IL5 (human),-0.346 z-score

# Part of the list above, as tab-separated lines.
sequence	measurement	setting	value
GGGAGGCTGAGGCAGG [G4-1 biotinylated (PQS2)]	binding signal	IL17A (human)	-0.328 z-score
same	binding signal	IL18BP (human)	-0.312 z-score
